Results from patent publication US20250109387A1, “SMOOTH MUSCLE CELLS SEEDED IN MICROCHANNELS WITHIN HYDROGELS TO FORM FUNCTIONAL MEDIAL LAYERS IN ENGINEERED MICROVASCULATURE” (VANDERBILT UNIVERSITY, priority 2023, published 2025).
For at least one compound, name, drawing or mass did not settle the structure.

System: engineered vessels
Experiment: Lumen diameter change of engineered vessels after vasoactive stimulus
Assay type: cell-based
Conditions: 10 µM acetylcholine; expected, based on prior studies; benchmark

In the case of `CC(=O)OCC[N+](C)(C)C` [acetylcholine], the diameter increase is reported as 10-20%.
